# Data source: PubChem BioAssay AID1224830 (NIAID, 2016)
# Test: 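Genes whose knock-down alters the TNF-alpha reporter response to LPS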 (primary screen)
# Cells: human THP-1 monocytic leukaemia cells, TNF dual-luciferase reporter clone, PMA-differentiated to macrophage-like cells
# Knock-down reagent: siRNA pool against human genes, 50 nM
# Time to read-out: LPS for 4 h, given about 3 days after siRNA transfection
# Treatment: bacterial LPS (TLR4 ligand), 10 ng/ml
# Measurement: 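Ratio of firefly to renilla light, scaled to the plate median and expressed as a robust z-score per replicate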
# Scale: TNF reporter robust z-score: higher = stronger TNF reporter response to LPS
# Active means: 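Each well counts as active if its z-score is over 2.8 or under -1.5; controls are left without a call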
# Here is an unselected part of about 18,000 reagents. Over the whole deposit, about 2,900 (16%) are marked active. 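Calls are made per well; low scores hint the gene aids the LPS response, high scores that it dampens it.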 Repeated entries: four replicate wells of each siRNA pool.
Gene,PubChem SID,TNF reporter robust z-score,Outcome
IDH1,SID315449391,0.57,inactive
IDH1,SID315449391,1.91,inactive
IDH1,SID315449391,0.6,inactive
IDH1,SID315449391,1.39,inactive
TUBG2,SID315455962,-0.66,inactive
TUBG2,SID315455962,-0.36,inactive
TUBG2,SID315455962,-0.37,inactive
TUBG2,SID315455962,-0.56,inactive
SPON1,SID315454070,-0.25,inactive
SPON1,SID315454070,0.47,inactive
SPON1,SID315454070,0.77,inactive
SPON1,SID315454070,0.54,inactive
RTP5,SID315463820,-0.97,inactive
RTP5,SID315463820,-1.07,inactive
RTP5,SID315463820,-1.37,inactive
RTP5,SID315463820,-0.96,inactive
ZNF169,SID315462887,-0.05,inactive
ZNF169,SID315462887,3.36,active
ZNF169,SID315462887,1.77,inactive
ZNF169,SID315462887,0.34,inactive
IL37,SID315455964,0.97,inactive
IL37,SID315455964,0.05,inactive
IL37,SID315455964,1.23,inactive
IL37,SID315455964,-0.24,inactive
COG8,SID315460345,-0.75,inactive
COG8,SID315460345,-0.4,inactive
COG8,SID315460345,0.05,inactive
COG8,SID315460345,-0.28,inactive
MRPL58,SID315449385,0.09,inactive
MRPL58,SID315449385,0.53,inactive
MRPL58,SID315449385,1.32,inactive
MRPL58,SID315449385,1.92,inactive
AMELX,SID315447296,-0.33,inactive
AMELX,SID315447296,0,inactive
AMELX,SID315447296,0.12,inactive
AMELX,SID315447296,1.37,inactive
PRR21,SID315465088,0.02,inactive
PRR21,SID315465088,-0.16,inactive
PRR21,SID315465088,-0.64,inactive
PRR21,SID315465088,0.6,inactive
TASOR,SID315455125,1.3,inactive
TASOR,SID315455125,4.74,active
TASOR,SID315455125,3.41,active
TASOR,SID315455125,3.96,active
OR1Q1,SID315462648,-0.32,inactive
OR1Q1,SID315462648,-0.17,inactive
OR1Q1,SID315462648,-0.74,inactive
OR1Q1,SID315462648,0.16,inactive
SYT10,SID315464115,1.08,inactive
SYT10,SID315464115,1.05,inactive
SYT10,SID315464115,1.63,inactive
SYT10,SID315464115,0.86,inactive
TNNT2,SID315451931,-1.25,inactive
TNNT2,SID315451931,0.14,inactive
TNNT2,SID315451931,-0.91,inactive
TNNT2,SID315451931,-0.71,inactive
KHSRP,SID315452666,-0.48,inactive
KHSRP,SID315452666,-0.22,inactive
KHSRP,SID315452666,-0.86,inactive
KHSRP,SID315452666,0.33,inactive
ZNF146,SID315452254,-0.7,inactive
ZNF146,SID315452254,-0.06,inactive
ZNF146,SID315452254,-1.2,inactive
ZNF146,SID315452254,-0.54,inactive
PPM1L,SID315462506,-0.77,inactive
PPM1L,SID315462506,0.65,inactive
PPM1L,SID315462506,0.2,inactive
PPM1L,SID315462506,-0.5,inactive
COPG1,SID315454793,-0.87,inactive
COPG1,SID315454793,-0.4,inactive
COPG1,SID315454793,-1.27,inactive
COPG1,SID315454793,-0.39,inactive
OR6Y1,SID315464676,14.9,active
OR6Y1,SID315464676,0.44,inactive
OR6Y1,SID315464676,0.78,inactive
OR6Y1,SID315464676,-1.13,inactive
